PubChem BioAssay AID720710 – VTT Finland, 2013
Here is an unselected part of about 1,380 deposited reagents. 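One array per condition without replicates; hydroxyurea arrays received 2 mM for 16 h plus 3 h recovery.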

Screen: 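Genes whose loss lowers DNA synthesis when an oncogene drives replication stress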 (primary screen)
Cell system: human U-2 OS bone cancer cells, parental and a cyclin E (CCNE1) overexpressing line
Knock-down reagent: single siRNA against human genes, 1 µM siRNA in the printed spot mix
Duration: 67 h
Treatment: half the arrays: hydroxyurea 2 mM for 16 h, then 3 h recovery; other arrays untreated
Measurement: 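EdU click signal imaged per DAPI-stained nucleus at 67 h; each spot divided by its subgrid median, then z-scored relative to non-targeting control spots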
Direction: EdU z-score, cyclin E line, hydroxyurea and EdU z-score, parental, hydroxyurea and EdU z-score, cyclin E line, untreated and EdU z-score, parental, untreated: higher = more DNA synthesis than non-targeting controls

Gene | PubChem SID | EdU z-score, cyclin E line, hydroxyurea | EdU z-score, parental, hydroxyurea | EdU z-score, cyclin E line, untreated | EdU z-score, parental, untreated
TCF7L1 | SID164222860 | -1.7 | -0.608 | -0.827 | -3.63
TCF7L1 | SID164222861 | 1.28 | 2.98 | 0.358 | 0.822
CDC6 | SID164221796 | -1.25 | -2.14 | -1.38 | 0.23
CDC6 | SID164221797 | 1.6 | -0.0692 | 0.793 | 0.736
RAD51B | SID164222598 | 0.13 | -1.63 | -2.04 | -0.274
RAD51B | SID164222599 | 0.717 | -0.0363 | -0.629 | -0.0157
PMS2 | SID164222488 | -1.22 | -0.00655 | -1.25 | -0.835
PMS2 | SID164222489 | 0.835 | 0.523 | -0.746 | 0.299
POLQ | SID164222530 | 0.21 | -0.0164 | -5.26 | -1.42
POLQ | SID164222531 | 3.74 | 2.21 | -1.85 | 0.951
H1-2 | SID164222076 | -1.73 | -0.039 | -0.403 | -0.046
H1-2 | SID164222077 | -1.02 | 0.95 | -0.253 | 0.221
CHD8 | SID164221836 | -0.737 | -0.252 | -5.1 | -1.14
CHD8 | SID164221837 | 0.342 | 2.26 | 0.783 | -0.0663
H2AC7 | SID164222086 | -0.197 | 0.493 | -1.46 | -0.119
H2AC7 | SID164222087 | 0.987 | 0.645 | -0.671 | 0.332
RAD21 | SID164222586 | -1.17 | -2.34 | -2.93 | -1.17
RAD21 | SID164222587 | -0.243 | 1.19 | -0.966 | 0.0755
CDC34 | SID164221792 | -1.04 | -0.746 | -1.94 | -0.306
CDC34 | SID164221793 | 0.211 | 2.54 | -0.191 | 0.886
LOC730323 | SID164222252 | 0.697 | 1.14 | -1.56 | -0.803
LOC730323 | SID164222253 | 2.02 | 2.86 | -1.04 | 0.393
CIDEA | SID164221846 | 0.4 | 1 | -1.8 | -3.13
CIDEA | SID164221847 | 1.18 | 1.81 | -0.717 | -1.57
REC8 | SID164222630 | -2.24 | -2.45 | -1.3 | -0.802
REC8 | SID164222631 | 0.663 | -1.51 | 0.177 | -0.798
RAD51D | SID164222600 | -0.0859 | -0.487 | -3.9 | -0.472
RAD51D | SID164222601 | 0.622 | 1.89 | -2.26 | 0.617
ATRIP | SID164221706 | -1.89 | 0.448 | -2.45 | -2.02
ATRIP | SID164221707 | 1.88 | 3.06 | -0.597 | 0.0632
GPR158 | SID164222020 | -2.55 | 0.53 | -0.642 | -0.781
GPR158 | SID164222021 | 2.06 | 3.48 | 0.283 | 0.308
SETD3 | SID164222728 | -1.28 | -5.06 | -1.67 | -3.19
SETD3 | SID164222729 | 0.734 | 0.855 | -0.852 | 0.578
CDT1 | SID164221812 | -0.497 | -1.93 | -0.71 | -1.26
CDT1 | SID164221813 | -0.359 | -1.86 | -0.451 | 0.769
SESN3 | SID164222722 | -1.6 | -1.43 | -2.12 | -1.52
SESN3 | SID164222723 | 1.61 | 0.624 | 0.213 | -0.963
FANCF | SID164221974 | -0.51 | 0.0065 | -0.783 | -1.14
FANCF | SID164221975 | 0.27 | 1.79 | -0.585 | -0.377
SPDYA | SID164222826 | -2.06 | 0.58 | -0.805 | 0.0962
SPDYA | SID164222827 | 2.68 | 1.08 | 0.132 | 0.4
HDAC5 | SID164222056 | -1.62 | -4.15 | -1.36 | -1.25
HDAC5 | SID164222057 | 1.71 | 0.633 | -1.27 | 0.685
POLRMT | SID164222532 | -0.0995 | -1.25 | -0.311 | -0.328
POLRMT | SID164222533 | 0.545 | 2.49 | 0.845 | 1.15
HIRIP3 | SID164222072 | -0.239 | -0.0728 | -1.73 | -0.453
HIRIP3 | SID164222073 | -0.14 | -0.0335 | 0.978 | 2.31
EZH2 | SID164221956 | -1.67 | -0.906 | -3.52 | -1.83
EZH2 | SID164221957 | 0.383 | 2.64 | -2.61 | -0.236
BRCA2 | SID164221730 | -1.64 | -0.916 | -1.42 | -1.12
BRCA2 | SID164221731 | 4.51 | 0.161 | 0.0769 | 0.939
NCOA6 | SID164222390 | -2.13 | 0.713 | -0.946 | 0.186
NCOA6 | SID164222391 | 1.3 | 0.749 | -0.89 | 0.393
ORC5 | SID164222452 | -0.486 | -1.74 | -4.67 | -0.364
ORC5 | SID164222453 | -0.257 | 2.46 | -0.786 | 1.15
KAT2A | SID164222000 | -2.29 | -1.77 | -1.52 | -0.681
KAT2A | SID164222001 | -1.34 | 1.83 | -0.802 | -0.585

A stretch from the list above:
Gene | PubChem SID | EdU z-score, cyclin E line, hydroxyurea | EdU z-score, parental, hydroxyurea | EdU z-score, cyclin E line, untreated | EdU z-score, parental, untreated
LOC730323 | SID164222253 | 2.02 | 2.86 | -1.04 | 0.393
CIDEA | SID164221846 | 0.4 | 1 | -1.8 | -3.13
CIDEA | SID164221847 | 1.18 | 1.81 | -0.717 | -1.57
REC8 | SID164222630 | -2.24 | -2.45 | -1.3 | -0.802
REC8 | SID164222631 | 0.663 | -1.51 | 0.177 | -0.798
